The record followed here is publication PMC5735797.

The assay deals with APOBEC3G with HA tag (pcDNA3.1-A3G-HA), Q9HC16. Description: co-IP; lysates of transfected 293T cells (150 mM NaCl, 50 mM Tris-HCl pH 7.5, 1 mM EDTA, 1% Triton X-100, 0.5% NP-40) on anti-HA agarose beads, 4 h at 4 °C, four washes, western blotting; in some panels cells treated with MG132 (4 μM, 16 h) or co-transfected with siRNAs against ElonginB, ElonginC or Cullin 5. The following applies: remark: other sources report otherwise. In general terms: In western blotting, separated proteins are transferred to a membrane and probed.

These are yes or no findings as the source states them, for the method shown. In cells and extracts the contact can be indirect. Some results given as binding are weak or reduced against the parent protein; the word gives no strength. Sequences can lack the tags named with a protein.

B1: MOV10 with FLAG tag (pcDNA3.1-MOV10-FLAG), Q9HCE1 1-1003 (protein)
chain: MPSKFSCRQLREAGQCFESFLVVRGLDMETDRERLRTIYNRDFKISFGTPAPGFSSMLYGMKIANLAYVTKTRVRFFRLDRWADVRFPEKRRMKLGSDISKHHKSLLAKIFYDRAEYLHGKHGVDVEVQGPHEARDGQLLIRLDLNRKEVLTLRLRNGGTQSVTLTHLFPLCRTPQFAFYNEDQELPCPLGPGECYELHVHCKTSFVGYFPATVLWELLGPGESGSEGAGTFYIARFLAAVAHSPLAAQLKPMTPFKRTRITGNPVVTNRIEEGERPDRAKGYDLELSMALGTYYPPPRLRQLLPMLLQGTSIFTAPKEIAEIKAQLETALKWRNYEVKLRLLLHLEELQMEHDIRHYDLESVPMTWDPVDQNPRLLTLEVPGVTESRPSVLRGDHLFALLSSETHQEDPITYKGFVHKVELDRVKLSFSMSLLSRFVDGLTFKVNFTFNRQPLRVQHRALELTGRWLLWPMLFPVAPRDVPLLPSDVKLKLYDRSLESNPEQLQAMRHIVTGTTRPAPYIIFGPPGTGKTVTLVEAIKQVVKHLPKAHILACAPSNSGADLLCQRLRVHLPSSIYRLLAPSRDIRMVPEDIKPCCNWDAKKGEYVFPAKKKLQEYRVLITTLITAGRLVSAQFPIDHFTHIFIDEAGHCMEPESLVAIAGLMEVKETGDPGGQLVLAGDPRQLGPVLRSPLTQKHGLGYSLLERLLTYNSLYKKGPDGYDPQFITKLLRNYRSHPTILDIPNQLYYEGELQACADVVDRERFCRWAGLPRQGFPIIFHGVMGKDEREGNSPSFFNPEEAATVTSYLKLLLAPSSKKGKARLSPRSVGVISPYRKQVEKIRYCITKLDRELRGLDDIKDLKVGSVEEFQGQERSVILISTVRSSQSFVQLDLDFNLGFLKNPKRFNVAVTRAKALLIIVGNPLLLGHDPDWKVFLEFCKENGGYTGCPFPAKLDLQQGQNLLQGLSKLSPSTSGPHSHDYLPQEREGEGGLSLQVEPEWRNEL
B1: the binding result was “binds”.
